Source: PubChem BioAssay AID493014 (National Center for Advancing Translational Sciences (NCATS), 2011)
Some of the results follow. Shown are side measurements of this screen, not its main read-out; they come without a call. The list favours compounds with an active or inconclusive main result. The note in brackets gives the kind of curve behind each potency; many fits are weak.

Assay: qHTS Assay to Find Inhibitors of Chronic Active B-Cell Receptor Signaling
Details: ABC-DLBCL IkBa-CBG/CBR reporter, luminescence ratio (green luciferase fused to IkBa over red control in TMD8 lymphoma cells), 4 h
Summary of the method: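 Doxycycline induced both beetle luciferases in TMD8 lymphoma cells; IKK-driven degradation limits the IkappaBalpha-fused green signal, while red luminescence normalises for cell number and nonspecific effects. Compounds tested up to 46 uM, 4 hrs.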

[1] = measured here: CBR red luminescence, cell number
[2] = measured here: IkBa-CBG green luminescence

SMILES	AC50 [1]	AC50 [2]
CN(C(=O)COC(=O)CNC(=O)c1ccccc1Cl)c1ccccc1	22.4 µM [rising, single point]	–
CC1CCC/C(=N\NS(=O)(=O)c2ccccc2)C1 (centres undefined)	6.31 µM [rising, partial curve, poor fit]	6.31 µM [falling, single point]
COc1cc(/C=C/CN2CCC(CO)(CC3CCCCO3)CC2)ccc1O (centres undefined)	35.5 µM [rising, single point]	–
CCCCCCCCC[n+]1cccc2c3ccccc3ccc21	22.4 µM [falling, single point]	–
CCC(C)NC(=O)c1cn(-c2cccc(C)n2)cn1 (centres undefined)	2.82 µM [falling, partial curve]	–
CC1CCN(C(=O)CSc2nc(C3CC3)nc3ccccc23)CC1	11.2 µM [falling, partial curve, poor fit]	–
O=C(NC1CC2CCC(C1)N2Cc1ccccc1)c1ccccc1Cl (centres undefined)	12.6 µM [rising, partial curve, poor fit]	–
Cc1nc2oc3c(NCc4ccccc4)ncnc3c2c2c1COC(C)(C)C2	2.06 µM [falling, partial curve, poor fit]	–
COc1cccc(CC2(CO)CCCN(C/C=C/c3ccccc3OC)C2)c1 (centres undefined)	10 µM [falling, partial curve, poor fit]	–
CCOc1ccc(S(=O)(=O)Nc2cc(Sc3ncn[nH]3)c3oc(=O)sc3c2)cc1	5.01 µM [rising, single point]	–
O=C(Nc1cccc2c1CCCC2)c1ccccc1Cl	35.5 µM [rising, single point]	–
N#Cc1c(NC(=O)CCC(=O)O)sc2c1CCCCC2	12.6 µM [falling, partial curve]	–
N#CCCN(C(=S)NC(=O)c1cccs1)c1ccccc1F	14.6 µM [rising, partial curve, poor fit]	–
CCN(CC)C(=O)[C@H]1C[C@H](CC(=O)NCc2cccc(C(F)(F)F)c2)C(=O)N2CCc3c([nH]c4ccc(Cl)cc34)[C@]12C	16.4 µM [falling, partial curve, poor fit]	–
COc1ccc(S(=O)(=O)N2CCN(C(C)C(=O)Nc3ccc(C(C)C)cc3)CC2)cc1 (centres undefined)	13 µM [rising, partial curve, poor fit]	–
O=C1NN(c2ccccc2)C(=O)/C1=C\c1cccc(OC(=O)c2cccs2)c1	23.1 µM [falling, single point]	–
COc1cc(C(=O)NCCc2ccc(F)cc2)ccc1OCC(=O)N1CCOCC1	18.4 µM [falling, partial curve, poor fit]	–

A run of entries from further up:
SMILES	AC50 [1]	AC50 [2]
COc1cc(/C=C/CN2CCC(CO)(CC3CCCCO3)CC2)ccc1O (centres undefined)	35.5 µM [rising, single point]	–
CCCCCCCCC[n+]1cccc2c3ccccc3ccc21	22.4 µM [falling, single point]	–
CCC(C)NC(=O)c1cn(-c2cccc(C)n2)cn1 (centres undefined)	2.82 µM [falling, partial curve]	–
CC1CCN(C(=O)CSc2nc(C3CC3)nc3ccccc23)CC1	11.2 µM [falling, partial curve, poor fit]	–
O=C(NC1CC2CCC(C1)N2Cc1ccccc1)c1ccccc1Cl (centres undefined)	12.6 µM [rising, partial curve, poor fit]	–
Cc1nc2oc3c(NCc4ccccc4)ncnc3c2c2c1COC(C)(C)C2	2.06 µM [falling, partial curve, poor fit]	–

Remaining list, next part

SMILES	AC50 [1]	AC50 [2]
CCOc1ncccc1C(=O)OCc1ccc(Cl)cc1	29.1 µM [rising, single point]	–
CSc1ccc(CCNC(=O)c2ccc(CS(=O)(=O)c3ccc(Br)cc3)o2)cc1	35.5 µM [falling, single point]	–
CCCOC(c1ccccc1)(c1ccc(C(F)(F)F)cc1)C(Oc1nc(C)cc(C)n1)C(=O)O (centres undefined)	35.5 µM [falling, single point]	–
O=C(O)c1ccc(-n2cccc2/C=C2/NC(=O)N(c3ccccc3)C2=O)cc1	35.5 µM [rising, single point]	–
COc1ccc2oc(=O)c(-c3nc(C)cs3)cc2c1	–	1 µM [rising, full curve]
CC1CCCC(NC(=S)NC(=O)c2ccccc2Br)C1C (centres undefined)	23.1 µM [falling, partial curve]	–
CCOC(=O)c1c(-c2ccc(C)cc2)cn2ccccc12	25.1 µM [falling, single point]	–
O=c1c2cc(N3CCOCC3)ccc2[nH]c(=S)n1Cc1ccco1	16.4 µM [falling, single point]	–
Cc1ccc2c(C(=O)CN3CCSCC3)c(C)[nH]c2c1	5.17 µM [rising, partial curve, poor fit]	–
OC(CN1CCCCC1)Cn1c2ccccc2c2cc(Br)ccc21 (centres undefined)	14.1 µM [falling, single point]	–
O=C(Nc1ccc2nsnc2c1)c1cccs1	7.94 µM [falling, partial curve]	–
c1ccc(-c2cnn3c(-c4ccccc4)c(-c4ccccc4)nc3n2)cc1	2.06 µM [falling, full curve]	–
Cc1ccc(Cn2c(=N)n(CC(O)COc3ccccc3)c3ccccc32)cc1 (centres undefined)	25.9 µM [falling, partial curve]	–
CSc1nc2ccccc2n1Cc1cccc(F)c1	1.84 µM [falling, partial curve, poor fit]	–
Cc1cc(=O)oc2cc(OCC3CC(c4ccccc4)=NO3)ccc12 (centres undefined)	0.731 µM [rising, full curve, poor fit]	–
N#Cc1c(NC(=O)CSc2nnc(-c3ccccc3)o2)sc2c1CCCC2	2.31 µM [rising, partial curve, poor fit]	–
